Measurements taken from paper PMC7176661.

Chains of the proteins cited; added tags and fusions are not shown. Lines headed by an entry give the natural chain unless they say otherwise; changes in a name come on top.
UniProt P06709: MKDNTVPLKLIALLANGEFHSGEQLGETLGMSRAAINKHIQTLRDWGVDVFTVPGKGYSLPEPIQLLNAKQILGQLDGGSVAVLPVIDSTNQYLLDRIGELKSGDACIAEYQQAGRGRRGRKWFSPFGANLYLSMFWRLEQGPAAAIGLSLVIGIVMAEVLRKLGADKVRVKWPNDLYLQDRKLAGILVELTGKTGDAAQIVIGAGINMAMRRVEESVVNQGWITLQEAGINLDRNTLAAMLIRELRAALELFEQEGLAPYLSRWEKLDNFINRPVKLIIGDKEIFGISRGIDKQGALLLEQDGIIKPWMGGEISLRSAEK

Legend:
[1] = target: T1, Tks5-BirA* (wild type Tks5α fused to the N-terminus of BirA*-HA) (UniProt Q5TCZ1); test: proximity labelling; BioID in living MDA-MB-231 cells stably expressing the BirA* fusion, seeded on gelatin, 50 uM biotin for 16 h; avidin-bead capture; LC-MS/MS with label-free quantification against the BirA* control pulldown, 1% permutation FDR
T1 sequence: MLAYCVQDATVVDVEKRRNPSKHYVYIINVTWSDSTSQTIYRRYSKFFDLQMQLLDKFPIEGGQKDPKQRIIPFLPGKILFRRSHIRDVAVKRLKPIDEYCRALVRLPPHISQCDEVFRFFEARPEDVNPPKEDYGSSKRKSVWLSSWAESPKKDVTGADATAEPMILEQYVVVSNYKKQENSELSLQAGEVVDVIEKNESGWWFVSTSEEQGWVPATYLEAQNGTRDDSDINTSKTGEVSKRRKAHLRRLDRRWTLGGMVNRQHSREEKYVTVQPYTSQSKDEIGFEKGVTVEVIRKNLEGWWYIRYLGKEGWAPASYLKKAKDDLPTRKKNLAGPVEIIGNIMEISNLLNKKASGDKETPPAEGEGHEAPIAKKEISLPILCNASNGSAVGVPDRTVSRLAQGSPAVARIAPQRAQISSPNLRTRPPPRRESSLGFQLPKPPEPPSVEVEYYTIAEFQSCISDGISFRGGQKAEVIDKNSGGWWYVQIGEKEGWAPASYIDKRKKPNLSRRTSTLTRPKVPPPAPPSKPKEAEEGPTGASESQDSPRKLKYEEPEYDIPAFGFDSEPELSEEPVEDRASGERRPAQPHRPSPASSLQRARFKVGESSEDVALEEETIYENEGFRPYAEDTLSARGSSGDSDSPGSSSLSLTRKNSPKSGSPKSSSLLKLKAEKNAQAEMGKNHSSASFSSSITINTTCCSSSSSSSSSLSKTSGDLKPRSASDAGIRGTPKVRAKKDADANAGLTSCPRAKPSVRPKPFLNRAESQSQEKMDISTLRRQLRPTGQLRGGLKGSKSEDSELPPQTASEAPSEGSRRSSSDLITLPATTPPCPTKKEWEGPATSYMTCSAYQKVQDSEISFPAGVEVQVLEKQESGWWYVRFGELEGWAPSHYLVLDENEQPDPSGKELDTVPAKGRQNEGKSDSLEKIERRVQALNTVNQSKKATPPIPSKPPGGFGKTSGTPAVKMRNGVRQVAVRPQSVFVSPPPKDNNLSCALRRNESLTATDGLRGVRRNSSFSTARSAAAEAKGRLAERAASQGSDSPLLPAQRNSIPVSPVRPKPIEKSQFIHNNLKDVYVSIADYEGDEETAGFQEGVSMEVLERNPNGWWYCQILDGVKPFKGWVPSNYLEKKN

[2] = target: T1, Tks5-BirA* (wild type Tks5α fused to the N-terminus of BirA*-HA); test: proximity labelling; BioID in living MDA-MB-231 cells stably expressing the BirA* fusion, seeded on gelatin, 50 uM biotin for 16 h; lysis (500 mM NaCl, 0.4% SDS, 2% Triton X-100); biotinylated proteins captured on avidin-coated beads; western blot with specific antibodies; also after knock-down of endogenous Tks5 (biotinylation unchanged)
[3] = target: ΔPX-Tks5-BirA* (Tks5α lacking its PX domain fused to the N-terminus of BirA*-HA); test: as above
[4] = target: BirA* alone (BirA(R118G)-HA) (UniProt P06709); test: as above

binding [1]: binds
binding [2]: binds
binding [3]: no binding
binding [4]: no binding
B1: Cdc42 guanine exchange factor FGD1 (protein, UniProt P98174 1-961)
chain: MHGHRAPGGAGPSEPEHPATNPPGAAPPACADSDPGASEPGLLARRGSGSALGGPLDPQFVGPSDTSLGAAPGHRVLPCGPSPQHHRALRFSYHLEGSQPRPGLHQGNRILVKSLSLDPGQSLEPHPEGPQRLRSDPGPPTETPSQRPSPLKRAPGPKPQVPPKPSYLQMPRMPPPLEPIPPPPSRPLPADPRVAKGLAPRAEASPSSAAVSSLIEKFEREPVIVASDRPVPGPSPGPPEPVMLPQPTSQPPVPQLPEGEASRCLFLLAPGPRDGEKVPNRDSGIDSISSPSNSEETCFVSDDGPPSHSLCPGPPALASVPVALADPHRPGSQEVDSDLEEEDDEEEEEEKDREIPVPLMERQESVELTVQQKVFHIANELLQTEKAYVSRLHLLDQVFCARLLEEARNRSSFPADVVHGIFSNICSIYCFHQQFLLPELEKRMEEWDRYPRIGDILQKLAPFLKMYGEYVKNFDRAVELVNTWTERSTQFKVIIHEVQKEEACGNLTLQHHMLEPVQRIPRYELLLKDYLLKLPHGSPDSKDAQKSLELIATAAEHSNAAIRKMERMHKLLKVYELLGGEEDIVSPTKELIKEGHILKLSAKNGTTQDRYLILFNDRLLYCVPRLRLLGQKFSVRARIDVDGMELKESSNLNLPRTFLVSGKQRSLELQARTEEEKKDWVQAINSTLLKHEQTLETFKLLNSTNREDEDTPPNSPNVDLGKRAPTPIREKEVTMCMRCQEPFNSITKRRHHCKACGHVVCGKCSEFRARLVYDNNRSNRVCTDCYVALHGVPGSSPACSQHTPQRRRSILEKQASVAAENSVICSFLHYMEKGGKGWHKAWFVVPENEPLVLYIYGAPQDVKAQRSLPLIGFEVGPPEAGERPDRRHVFKITQSHLSWYFSPETEELQRRWMAVLGRAGRGDTFCPGPTLSEDREMEEAPVAALGATAEPPESPQTRDKT

These are yes or no findings as the source states them, for the method shown. Binding seen in cells or lysates may run through a third protein. These calls come from enrichment with a bait or labelling near it, and not all partners need be listed. For some of these results: A no says only that the protein was not detected with the bait. For some of these results: Tags and fused reporters may be left off the sequences shown.
